The results in this text go back to publication PMC7198045.

Test [1] addresses T1, GFP-tagged full-length VRK1 WT (vaccinia-related kinase 1) (human) (UniProt Q99986).
T1 sequence: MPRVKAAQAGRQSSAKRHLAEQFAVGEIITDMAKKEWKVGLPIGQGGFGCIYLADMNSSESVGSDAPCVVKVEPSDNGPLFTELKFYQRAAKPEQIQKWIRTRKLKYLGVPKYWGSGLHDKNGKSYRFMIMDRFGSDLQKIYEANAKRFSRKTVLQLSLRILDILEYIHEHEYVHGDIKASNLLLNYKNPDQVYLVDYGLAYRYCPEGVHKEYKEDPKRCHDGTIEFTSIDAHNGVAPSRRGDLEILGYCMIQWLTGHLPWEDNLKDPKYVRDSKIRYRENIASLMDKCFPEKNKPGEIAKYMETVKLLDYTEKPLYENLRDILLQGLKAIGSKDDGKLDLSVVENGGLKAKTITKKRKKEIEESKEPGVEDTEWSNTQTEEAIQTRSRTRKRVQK
As to the kind of experiment: affinity purification with mass spectrometry; anti-GFP agarose beads with whole cell extracts of GFP-VRK1 or GFP transfected Huh-7 cells treated with low or high glucose for 3 h; beads washed with Co-IP buffer.

Test [2] addresses T2, VRK1 C-terminal peptide WT (377-396) (human).
T2 sequence (peptide): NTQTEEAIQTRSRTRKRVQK
The test can be described thus: affinity purification with mass spectrometry; C-terminus peptide WT conjugated to Affi-gel10, incubated with whole cell extracts of Huh-7 cells treated with low (40 mg/dl) or high (140 mg/dl) glucose for 3 h; beads washed with Co-IP buffer; 6E peptide on Affi-gel15 as negative bait; only the target purified.

Results are given in words; binding and its absence hold for the method and conditions named. In cells and extracts the contact can be indirect. These calls come from enrichment with a bait or labelling near it, and not all partners need be listed. For some assays here: Tags and fused reporters may be left off the sequences shown.

B1: Plakophilin-2 (PKP2), endogenous in Huh-7 cells (protein, UniProt Q99959 1-881)
chain: MAAPGAPAEYGYIRTVLGQQILGQLDSSSLALPSEAKLKLAGSSGRGGQTVKSLRIQEQVQQTLARKGRSSVGNGNLHRTSSVPEYVYNLHLVENDFVGGRSPVPKTYDMLKAGTTATYEGRWGRGTAQYSSQKSVEERSLRHPLRRLEISPDSSPERAHYTHSDYQYSQRSQAGHTLHHQESRRAALLVPPRYARSEIVGVSRAGTTSRQRHFDTYHRQYQHGSVSDTVFDSIPANPALLTYPRPGTSRSMGNLLEKENYLTAGLTVGQVRPLVPLQPVTQNRASRSSWHQSSFHSTRTLREAGPSVAVDSSGRRAHLTVGQAAAGGSGNLLTERSTFTDSQLGNADMEMTLERAVSMLEADHMLPSRISAAATFIQHECFQKSEARKRVNQLRGILKLLQLLKVQNEDVQRAVCGALRNLVFEDNDNKLEVAELNGVPRLLQVLKQTRDLETKKQITDHTVNLRSRNGWPGAVAHACNPSTLGGQGGRITRSGVRDQPDQHGLLWNLSSNDKLKNLMITEALLTLTENIIIPFSGWPEGDYPKANGLLDFDIFYNVTGCLRNMSSAGADGRKAMRRCDGLIDSLVHYVRGTIADYQPDDKATENCVCILHNLSYQLEAELPEKYSQNIYIQNRNIQTDNNKSIGCFGSRSRKVKEQYQDVPMPEEKSNPKGVEWLWHSIVIRMYLSLIAKSVRNYTQEASLGALQNLTAGSGPMPTSVAQTVVQKESGLQHTRKMLHVGDPSVKKTAISLLRNLSRNLSLQNEIAKETLPDLVSIIPDTVPSTDLLIETTASACYTLNNIIQNSYQNARDLLNTGGIQKIMAISAGDAYASNKASKAASVLLYSLWAHTELHHAYKKAQFKKTDFVNSRTAKAYHSLKD
With B1, the binding result in test [1] and in test [2] was “binds” each time.
